At least one structure is not confirmed: it was looked up by name or label, or the drawing left a doubt.
Tested on: PI3-K
Experiment: PI3-K activity in p85 immunoprecipitates from MCF-7 cells
Assay type: cell-based
Conditions: MCF-7 cells treated with 10 nM estradiol for 20 min
Experimental: Transfections and cell lysates preparation. […] Cell debris was removed by centrifugation.
Immunoprecipitation and kinase assays.
For PI3-K reaction, p85 was immunoprecipitated from cell lysates as described above. Kinase activity in the immunoprecipitate was detected using PI3-Kinase ELISA kit from Echelon Biosciences according to the manufacture's instructions. Briefly, reaction was run in 50 μl volume by adding 5 μl of 10× reaction buffer and 10 μl of PI(4,5)P2 substrate solution (10 μM) to the p85 immunoprecipitate. After the PI3-K reactions was complete, reaction products are first mixed and incubated with a PI(3,4,5)P3 detecting antibody, then added to the PI(3,4,5)P3-coated microplate for competitive binding. A peroxidase-linked secondary detection reagent and colorirnetric detection was used to detect PI(3,4,5)P3 detecting antibody binding to the plate. The colorimetric signal was inversely proportional to the amount of PI(3,4,5)P3 produced by PI 3-K activity.

O=c1cc(N2CCOCC2)oc2c(-c3ccccc3)cccc12 [LY294002]
effect on estradiol activation of PI3-K activity: blocked

Reference: patent publication US20050202515A1, “Functional method for generating or screening for ligands which modulate steroid hormone receptors” (Wyeth, priority 2004, published 2005)
